Measurements from publication PMC3843698.
These are yes or no findings as the source states them, for the method shown. Binding seen in cells or lysates may run through a third protein. Some entries that bind do so weakly or less than the wild type.

By UniProt entry, the sequences of proteins in these tests, tags left out.
UniProt P9WNH7: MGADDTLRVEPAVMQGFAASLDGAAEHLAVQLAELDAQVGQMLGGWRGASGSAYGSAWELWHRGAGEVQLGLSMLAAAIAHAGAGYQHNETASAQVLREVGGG
UniProt I6Y3I6: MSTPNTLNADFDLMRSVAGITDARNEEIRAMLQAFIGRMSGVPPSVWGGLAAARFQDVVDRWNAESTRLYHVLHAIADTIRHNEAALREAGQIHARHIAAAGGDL
UniProt P9WNH9: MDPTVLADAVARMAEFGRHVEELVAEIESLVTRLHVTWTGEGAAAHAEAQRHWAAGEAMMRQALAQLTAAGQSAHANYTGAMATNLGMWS
UniProt I6YC53: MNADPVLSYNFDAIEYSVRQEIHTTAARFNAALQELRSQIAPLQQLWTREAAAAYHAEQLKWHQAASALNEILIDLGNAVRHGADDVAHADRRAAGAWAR

What was measured:
[1] = target: EsxFmt with C-terminal His6 tag (expressed from pMAPLe3) (M. tuberculosis H37Rv) (UniProt P9WNH7); test: pull-down; […]; buffer 4: 50 mM HEPES, […]
[2] = target: EsxFmt with C-terminal His6 tag (expressed from pMAPLe3) (M. tuberculosis H37Rv) (UniProt P9WNH7); test: pull-down; […]; buffer 3: 50 mM HEPES, pH 7.5, 1 M NaCl
[3] = target: EsxFmt with C-terminal His6 tag (expressed from pMAPLe3) (M. tuberculosis H37Rv) (UniProt P9WNH7); test: pull-down; […]; buffer 1: 50 mM HEPES, pH 7.5 or pH 7.8, 300 mM NaCl
[4] = target: EsxUmt with C-terminal His6 tag (expressed from pMAPLe3) (M. tuberculosis H37Rv) (UniProt I6Y3I6); test: pull-down; […]; buffer 4: 50 mM HEPES, […]
[5] = target: EsxUmt with C-terminal His6 tag (expressed from pMAPLe3) (M. tuberculosis H37Rv) (UniProt I6Y3I6); test: pull-down; […]; buffer 3: 50 mM HEPES, pH 7.5, 1 M NaCl
[6] = target: EsxUmt with C-terminal His6 tag (expressed from pMAPLe3) (M. tuberculosis H37Rv) (UniProt I6Y3I6); test: pull-down; […]; buffer 1: 50 mM HEPES, pH 7.5 or pH 7.8, 300 mM NaCl

Measured: binding

EsxEmt after intracellular cleavage of MBP (expressed from pMAPLe3) (from UniProt P9WNH9 1-90)
binds: [1] | [2] | [3]

EsxTmt after intracellular cleavage of MBP (expressed from pMAPLe3) (from UniProt I6YC53 1-100)
binds: [4] | [5] | [6]
